Assay results from patent US10500178B2, “LTB4 inhibition to prevent and treat human lymphedema” (The Board of Trustees of the Leland Stanford Junior …, priority 2015, dated 2019).
At least one compound was matched to its structure with a doubt left.

System: acquired lymphedema surgically induced in the tails of female C57BL/6J mice
Test: mouse-tail model of acquired lymphedema (tail volume, histology)
Assay type: in vivo
Procedure: Surgical induction of experimental lymphatic vascular insufficiency. […] Briefly, a full-thickness circumferential incision of the skin was made 16 mm distal to the base of the mouse tail under anesthesia. Lymphatic trunks were ablated through controlled, limited cautery application under the surgical microscope. For surgical controls (sham animals), the skin incision alone was performed without lymphatic cautery.
All small molecule drugs were administered through daily intraperitoneal injection.
Tail volume quantitation. Tail-volume measurements at each designated time were quantified by observers blinded to the treatment status of the subjects. Tail volumes were calculated through a digital photographic technique pre-operatively, and post-operatively (d3, d9, d14, d20, and d24), using an Olympus D520 Zoom digital camera at SHQ resolution at a fixed distance from the subject (37 cm), as previously described. Tail volumes were derived from the measurement of the tail diameter using the truncated cone approximation. […]
Viral particles were mixed with Lipofectamine 2,000 (5% final vol/vol, Invitrogen) before injection, to increase transduction efficiency. qRT-PCR, immunofluorescence and fluorescence in situ hybridization were used to evaluate the silencing efficiency in the mouse tail skin 24d after surgery.

With CC(C)(O)c1ccccc1CC[C@@H](SCC1(CC(=O)O)CC1)c1cccc(/C=C/c2ccc3ccc(Cl)cc3n2)c1 [montelukast] the tail swelling (therapies initiated on d3) was “not” and the “amelioration of lymphedema (serial tail-volume measurements over 24d)” value (therapies started on post-surgery d3 (late LTB4 antagonism)) was “did not have beneficial effects”.
